Reference: the supplement of paper PMC3334620
In all, about 33,000 sequences were measured (“E-score (-0.5 to 0.5)”: median about -0.0034, highest 2% from about 0.25 on). The list shows a part of the results.

Molecular target: T1, Yap3 (UniProt P38749)
T1 sequence: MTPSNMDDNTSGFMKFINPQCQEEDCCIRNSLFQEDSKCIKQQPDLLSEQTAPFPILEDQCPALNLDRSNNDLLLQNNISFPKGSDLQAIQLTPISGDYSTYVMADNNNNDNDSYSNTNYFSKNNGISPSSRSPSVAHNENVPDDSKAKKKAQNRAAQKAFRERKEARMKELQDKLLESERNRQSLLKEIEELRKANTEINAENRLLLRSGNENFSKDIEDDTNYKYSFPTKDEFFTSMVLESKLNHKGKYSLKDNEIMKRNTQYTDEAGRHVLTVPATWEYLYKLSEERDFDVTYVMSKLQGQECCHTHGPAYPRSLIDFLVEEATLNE
Experiment: PBM E-score (8-mer binding enrichment) (E-score (-0.5 to 0.5)); higher = stronger / more preferred TF binding
Conditions: protein concentration: 100 nM; construct: GST-full length
Method in brief: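 Universal all-10-mer Agilent arrays, fresh or stripped once, were converted to double-stranded form by primer extension. GST-tagged yeast transcription factors from PURExpress in vitro transcription/translation, full-length or DNA-binding domain only, were applied at about 100-200 nM and detected with fluorescent anti-GST. After masliner normalisation, the Universal PBM Analysis Suite scored each ungapped eight-base word together with its reverse complement by E-score.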

Sequence	PBM E-score
ACCGTCGT	0.0609
ACATTGGC	-0.0552
GTCGGTTA	-0.00978
CGGGCGAA	-0.0828
GGGCGAAC	0.0304
CGCGCTCA	0.0763
ATACGACC	0.0496
AAGCGAAC	-0.0302
AGCGACGG	0.0129
ACGAGCAG	0.00252
CGCCAGGA	-0.0722
AAATCATA	0.18
CTGGGCTA	-0.179
CTATTTCA	0.159
AATGCATT	0.258
ATCCAACG	-0.109
ACACACTA	0.13
GAATCCAA	0.0225
GACGGGAC	-0.318
ACCCAGTG	-0.188
AAGGAAAC	-0.0451
AGGCGAAA	0.13
TAGCGATA	0.0942
CAGGATGG	-0.188
CGGAGAGA	-0.0683

Part of the list above in a different format:
Sequence | PBM E-score
ACCGTCGT | 0.0609
ACATTGGC | -0.0552

(further entries)

Sequence	PBM E-score
CAGGTTAC	0.0255
AACCATGA	0.215
GGGAGGGA	-0.11
ATTATGCA	0.0948
AAAGCATG	-0.0278
CCGGGAAA	-0.111
GAGTAACA	0.231
CATAAATC	0.183
GATTTGGA	-0.0207
CATTAAAC	0.104
CGATTTAA	0.153
CAGGGATG	-0.228
CTGTAACC	0.0728
AATGGGGC	-0.119
AGTGGACC	-0.155
ATGTCCGA	-0.0604
AAAATATT	0.318
GCTCTCCC	-0.171
ACATGATC	0.115
TTGTGAAA	0.0216
AAGGTTTA	-0.101
CGCCAGCG	-0.177
GACCAACC	-0.181
AAAGCAGA	0.216
CAAGAGGA	-0.0349

Sequence	PBM E-score
ATCAACTA	0.213
ACATACCC	0.0479
GCAAAGGA	0.184
ATATTCCC	0.163
GAATTGCC	0.0463
AAGGGTCA	-0.154
ATCTTCTA	0.0985
TACCTCAA	0.0657
GCATTCCC	-0.0258
CACCCTGC	-0.0024
ACGGAAGC	-0.0665
CGTACGCC	-0.0467
GGGAGCTA	-0.0931
ATAAGGCA	0.0975
CTCGTGGA	-0.0498
GAGCGTGA	-0.158
ATGAGTTG	0.033
ATGCGTGC	0.0537
GAAAGCCA	-0.0548
CTGTCACA	-0.055
AAAAATTA	0.29
AAGGATCA	0.156
AACTTTAA	0.234
TAGCTGGA	-0.272
ATGAAGAC	0.029

Sequence	PBM E-score
GAATGTCC	0.0177
ATCCCGCG	0.0961
CGTTGCTC	-0.0454
GTTGTAGA	-0.0313
TGCAAACA	-0.0326
ACTAGGCG	0.171
CGAATCGA	0.301
ATGTCACC	0.138
TGCGATAA	0.238
CGTACACA	0.123
ACGATACC	0.157
AAGCAGAT	0.0622
CGTGTCTC	-0.115
AAATCGCC	-0.0404
CACAGTTA	0.228
CAATCAAG	-0.0281
ATGTAGAA	0.0426
CGAAAAGA	0.244
AACGTGGC	0.0342
AGTATTAC	0.26
CGATCCGC	-0.0285
ACTCGGGA	0.0571
GCGTGACC	-0.182
GAATATTC	0.194
CGGTAAAA	0.114

Sequence	PBM E-score
GACCTGCC	-0.212
CCTTCCTC	-0.269
CACTAACG	-0.0566
CAATCTAG	0.0544
CAACCGGA	-0.0217
CACAGAGA	0.0569
AAGCCCAA	0.0176
TGAGCTCA	0.0969
CACATGTG	0.0456
CATCAACA	0.255
AGACTGGA	-0.0998
AATGTCCG	0.0248
AGAAATGG	0.0834
AGTTACTG	0.0467
CCCTCAGG	-0.312
ACTGAAAT	0.169
ATGATGTC	0.126
CACAAGGC	-0.0703
CAGGAGTC	-0.0693
CCTGGCTA	-0.115
AGAAAGGG	-0.0731
GGCTAATA	0.193
CAAGCGCG	0.0518
CATGGTCA	0.167
GCGTAGCC	-0.176

Sequence	PBM E-score
CACCTAAA	0.0508
AAGCAGTA	0.0168
ATCGAGAA	0.107
AGGAGGTG	-0.245
ACAAGCTG	-0.00881
CGAGATCC	-0.0606
CACACGCC	0.0625
AGGCGCAT	0.0348
AGTCACGG	0.00648
CTAATTCC	0.0879
GTCTTCTA	0.0359
CGCTTTGC	0.0215
GACCCGAA	-0.124
CCTAAGGC	-0.38
ACGTCCCG	-0.14
CAAAATCG	0.0686
GATTACCC	0.147
GATAGGCC	-0.148
AAGCCCAC	-0.194
CTTCGCCA	-0.281
ACCGCCAT	0.0211
GATTCGCA	0.165
ACCATGCA	-0.0101
CAATCATG	0.12
AGTTCTGG	0.115

Random excerpt: six records from the list.
Sequence	PBM E-score
ACGTCCCG	-0.14
CGTGTCTC	-0.115
AAAGCAGA	0.216
CTGTAACC	0.0728
AAAATATT	0.318
GGGCGAAC	0.0304

Quoted from above for reference:
Sequence	PBM E-score
ATCGAGAA	0.107
AGGAGGTG	-0.245
ACAAGCTG	-0.00881

Remaining list, next part:

Sequence	PBM E-score
CAATCATC	0.0567
GCGAGACA	-0.108
ACAATGGC	0.0811
GTACTGAA	0.117
CTGGCCGA	-0.262
CTGGCAGC	-0.329
ACGCGTCC	-0.154
AGCATTTA	-0.11
AGACTTGC	-0.232
CGGATCCC	-0.215
AGCTGAAG	-0.05
AGCACCGC	-0.145
AACCATAA	0.15
ACCGCACC	-0.116
GGAGTGAA	0.0215
GTGTCGGA	-0.0362
TCATTCAA	0.205
AGGTGTTG	-0.0906
TAGAAGCA	-0.0249
AAGTGGAA	0.0868
CAGCCTTA	-0.202
CCCAAACC	-0.0497
